Measured values: PubChem BioAssay AID1457 (National Center for Advancing Translational Sciences (NCATS), 2008)
Hit rate of the full screen: of about 210,000 compounds, about 730 (0.35%) were called active. The source calls these results inconclusive, neither active nor inactive. The call rests on the fitted dose curve; in most records, active means well fitted inhibition curve with a large enough effect; inconclusive means small, poorly fitted or top-dose-only effect; inactive means no such curve, though single readings can be large or run the other way.

assay: qHTS Assay for Identifying the Cell-Membrane Permeable IMPase Inhibitors: Potentiation with Lithium; settings: CHO-M1 cells, IP1 TR-FRET (IP-One), carbachol + lithium;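 further: IP1 builds up when IMPase is blocked and the TR-FRET signal falls; nearly all actives have a fitted effect of over 50% in size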
Potency means the concentration at half of the fitted maximal effect.

| Structure (SMILES) | Potency |
| --- | --- |
| Cc1nc2ccc3ccccc3c2s1.O=[N+]([O-])c1cc([N+](=O)[O-])c(O)c([N+](=O)[O-])c1 | inconclusive: 28.2 µM |
